## Percent effect of library compounds

By UniProt entry, the sequences of proteins in these tests, tags left out.
UniProt P9WPC5, whole entry: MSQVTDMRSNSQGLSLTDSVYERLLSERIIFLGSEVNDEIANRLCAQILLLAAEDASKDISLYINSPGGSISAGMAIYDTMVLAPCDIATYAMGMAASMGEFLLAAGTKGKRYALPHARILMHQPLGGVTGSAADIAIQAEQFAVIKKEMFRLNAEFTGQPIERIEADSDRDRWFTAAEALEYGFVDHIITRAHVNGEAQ
UniProt P9WPC3, whole entry partner: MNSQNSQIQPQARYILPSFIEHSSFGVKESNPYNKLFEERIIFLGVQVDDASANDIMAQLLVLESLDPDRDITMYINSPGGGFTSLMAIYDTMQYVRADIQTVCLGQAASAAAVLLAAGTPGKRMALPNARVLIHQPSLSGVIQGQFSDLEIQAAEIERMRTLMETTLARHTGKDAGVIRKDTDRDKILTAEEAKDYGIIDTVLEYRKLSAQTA

Measurements from “University of Dundee, Small-Polar-MMV Screening Library” (2021), ChEMBL document CHEMBL3988442.

A: 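Assay of Toxoplasma gondii numbers, read through their beta-galactosidase reporter with a colour substrate. Concentration: 10 µM. Higher reads as fewer parasites (inferred from which compounds were picked for retests). Size under these conditions: about 67,000 compounds, about 260 of them at 50% or above in at least one test.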
B: 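Protease assay of ClpP1P2, read by the AMC dye that it sets free. Target: ClpP1P2, Mycobacterium tuberculosis (UniProt P9WPC5 and UniProt P9WPC3). Compounds at 50 µM. Higher reads as stronger inhibition, judged from the few compounds that gave an IC50. Most other retested compounds had strongly negative values. Of about 69,000 compounds tested this way, about 10 (0.015%) reached 50% or more in at least one test.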

Results are given as percent effect. The record does not define 0% and 100%; most values in the screen are far below 50% and negative numbers occur (in some assays of this library far below -100). This is an unselected part of the compounds tested. A dash means the value is not listed here; it may have been measured.

| SMILES | A | B |
|---|---|---|
| `c1cncc(CN2CCC(c3csc4nccn34)CC2)c1` | -28.4% | -3.937% |
| `CN(CCCOc1ccccc1)C(=O)c1csc(-c2nnc[nH]2)n1` | 11.43% | 1.617% |
| `CC(C)(C)S(=O)(=O)CCNC(=O)c1ccc2ccccc2c1` | -53.7% | -14.88% |
| `COCCC1COC2(CCN(C(=O)Cc3ccccc3)CC2)C1` (stereo not shown) | -0.3569% | -3.445% |
| `COCCC1(C(=O)O)CCCN(Cc2cc3c(cc2C)OCO3)C1` (stereo not shown) | 8.649% | -2.483% |
| `CC(C)NC(=O)[C@@H]1C[C@@H](N)CN1C(=O)CCSCc1ccccc1` | -19.37% | -3.575% |
| `O=C(O)C(F)(F)F.[H][C@]12CCCN(Cc3ccc(OC)cc3)[C@@]1([H])CN(C(=O)c1ccco1)C2` | -13% | - |
| `CC(O)CN1CCN(Cc2coc(-c3ccc(Cl)cc3)n2)CC1` (stereo not shown) | 8.551% | -19.41% |
| `CCOc1ccc(NC(=O)c2scnc2CC)cc1CO` | 0.7551% | 1.852% |
| `COc1cc(CNC(=O)C2CC(=O)N(C(C)C)C2)ccn1` (stereo not shown) | -13.16% | 29.6% |
| `CCN(C)S(=O)(=O)N1C[C@@H]2CC[C@H](C1)N(Cc1cscn1)C2=O` | - | -14.9% |
| `COCCNc1ccc(CC2CCCN(C3CCOCC3)C2)nn1` (stereo not shown) | -5.892% | -14.45% |
| `Cc1cc(NC(=O)NCC2COc3ccccc3C2)no1` (stereo not shown) | -5.356% | -11.97% |
| `CCOC(=O)C1(CCOC)CCN(Cc2nccn2CC)CC1` | -0.7692% | -4.741% |
| `Cn1cc(C(=O)N2CCCC(c3cc(O)n(C)n3)C2)cn1` (stereo not shown) | 0.2919% | 2.333% |
| `[H][C@@]12COC[C@@H](Cc3nc(C)no3)[C@]1([H])CN(S(=O)(=O)C1CC1)C2` | -9.013% | - |
| `CCOCC(=O)Nc1cccc(Oc2ccccn2)c1` | 3.488% | -0.5017% |
| `Cc1nc2c(C)cccc2cc1C(=O)N1CCC2(CCCNC2)C1` (stereo not shown) | 2.227% | -2.4% |
| `COCCN1CCN(CC2CCCCO2)CC1` (stereo not shown) | 2.326% | 14.95% |
| `Cc1nc(O)cc(CN2CC=C(c3cnn(-c4ccccc4)c3)CC2)n1` | 7.068% | 4.689% |
| `O=C(NCCN1CCCC1)c1nc2c(o1)CN(C(=O)c1cccnc1)C2.O=C(O)C(F)(F)F.O=C(O)C(F)(F)F` | 3.155% | - |
| `N#Cc1ccc(N2CCN(c3cnccn3)CC2)cc1C(F)(F)F` | -5.619% | 2.501% |
| `Cc1nc(C)n(C2CCCN(C(=O)c3cscn3)C2)n1` (stereo not shown) | 24.45% | -19.34% |
| `Cc1ccsc1C(=O)NC(C)c1ccc2c(c1)CCC(=O)N2` (stereo not shown) | 17.09% | 6.002% |
| `COc1ccc2cccc(CC(=O)NCc3nccc(N)n3)c2c1` | 2.74% | -4.752% |
| `Cc1nc[nH]c1CN1CCCC(CNC(=O)c2ccncn2)C1` (stereo not shown) | 4.209% | -0.8362% |
| `Cc1cc(Cn2c(=O)c3c(C(F)(F)F)cc(C)nc3n2C)on1` | 24.13% | -11.6% |
| `c1ccc(-c2nccc(N3CCc4c(ncn4C4CC4)C3)n2)cc1` | 3.459% | 3.109% |
| `CCc1nc2c(s1)C(N(C)C(=O)c1cc[nH]n1)CCC2` (stereo not shown) | 9.773% | -6.084% |
| `O=C(N1CCCC1)N1CCC[C@]2(C[C@@H](OCc3ccncc3)CO2)C1` | - | -13.09% |
| `CCCc1cncnc1N1CCCC2(CCC(=O)N(C3CCCC3)C2)C1` (stereo not shown) | 13.6% | 5.356% |
| `COCCN1C(=O)CC[C@]12CC[C@@H](NCc1cccnc1OC)CC2.O=C(O)C(F)(F)F.O=C(O)C(F)(F)F` | -16.5% | - |
| `CN(C)CC1CN(C(=O)Cc2ccccc2)Cc2nccn2C1.O=C(O)C(F)(F)F` (stereo not shown) | 32.82% | - |
| `CCn1nc2c(cc1=O)CN(c1ncnc3ccsc13)CC2` | 76.59% | -0.7599% |
| `COCCN1CCN(CC(=O)NC2(C#N)CCCC2)CC1C` (stereo not shown) | 0.1129% | -5.534% |
| `[H][C@@]12CN(C(=O)c3ccc(OC)cc3)CCN1C(=O)CNC2=O` | 0.07722% | - |
| `COCCCN(Cc1ccccn1)S(=O)(=O)c1ccc(OC)cc1` | -10.34% | -14.19% |
| `O=C1NCCCCC1Sc1ccc(F)c(F)c1` (stereo not shown) | - | 9.776% |
| `O=C(O)C(F)(F)F.O=C(O)C(F)(F)F.[H][C@@]12CCN(C3CCC3)C[C@]1(C(=O)NCCc1ccccn1)CCO2` | 9.8% | - |
| `CC(C)CCN1CCCC(Cn2cc(CCO)nn2)C1` (stereo not shown) | -0.6747% | -0.9467% |
| `CC(C)c1nnc(CN2CCC3(CC2)Nc2ccccc2NC3=O)o1` | -9.167% | 20.21% |
| `c1ccc(N2CCCC3(CCN(Cc4nccs4)C3)C2)nc1` (stereo not shown) | 5.702% | 17.35% |
| `Cc1nn(C)c2cn(C(C)C(=O)NCc3cccnc3)nc12` (stereo not shown) | -0.1195% | 5.817% |
| `CCOc1ccc(Cl)c(C(=O)N2CCCN(CC(N)=O)CC2)n1` | 0.6096% | -12.51% |
| `COc1cc(F)ccc1-c1cnc(N)cn1` | 13.37% | -42.59% |

Once more, the final 4:

SMILES,A,B
c1ccc(N2CCCC3(CCN(Cc4nccs4)C3)C2)nc1 (stereo not shown),5.702%,17.35%
Cc1nn(C)c2cn(C(C)C(=O)NCc3cccnc3)nc12 (stereo not shown),-0.1195%,5.817%
CCOc1ccc(Cl)c(C(=O)N2CCCN(CC(N)=O)CC2)n1,0.6096%,-12.51%
COc1cc(F)ccc1-c1cnc(N)cn1,13.37%,-42.59%